# Laboratory results taken from PubChem BioAssay AID651900 (Broad Institute, 2012).
# The list shows a part of the results. These are further read-outs of the screen, such as a control signal, another cell line or another target. No call is given for them.
# Assay: cytotoxicity in NIH3T3 fibroblasts, dose response, cytotoxicity control, cell-based, plate reader, cherry-pick, two tests (AID 651900)
# Conditions: test 2 concentration series, at 26 µM
row,Compound,activity
1,Cc1ccc(NCc2nnc(SCC(=O)N3CCc4ccccc43)n2C)cc1,-9.53%
2,Cc1ccc(/C=C(\CCC(=O)O)c2nc3ccccc3s2)cc1[N+](=O)[O-],1.87%
3,CC(=O)c1ccc(N2CCN(c3ncccn3)CC2)c([N+](=O)[O-])c1,-1.3%
4,CCCN1CCN(C(=O)C2CCN(c3nnc(C)c4c(C)n(-c5ccc(C)cc5)nc34)CC2)CC1,-8.58%
5,Cc1cccc(C(=O)NC2CCN(CC(=O)Nc3ccccc3Cl)CC2)c1,-13.3%
6,O=C(c1ccc(S(=O)(=O)Nc2ccccc2F)cc1)N1CCN(c2ccccc2O)CC1,-5.39%
7,O=C(Nc1ccc2nccnc2c1)c1cnccn1,-1.65%
8,CCOCCCNC(=O)CSc1nc2nc(C)c(Cc3ccccc3)c(C)n2n1,-10.1%
9,COc1ccc(F)cc1C(=O)C1CCCN(C(=O)c2ccc(C(C)=O)s2)C1 (centres undefined),-3.09%
10,CCCC(=O)Nc1cccc(NC(=O)c2ccc(C)c([N+](=O)[O-])c2)c1,-1.93%
11,Nn1c(SCCOc2ccccc2)nnc1-c1cccnc1,-4.92%
12,CC(=O)c1ccc(N2CCN(C(=O)Cc3cccs3)CC2)cc1,-0.012%
13,O=C(CSc1nc2cc(C(=O)O)ccc2c(=O)n1-c1ccc(F)cc1)Nc1ccc(F)c(F)c1F,-12.1%
14,O=C(Nc1cccnc1)C1CCN(S(=O)(=O)c2ccc(Cl)cc2)CC1,-2.19%
15,COc1ccc(CCNC(=O)c2cnc3n(c2=O)CCS3)cc1OC,3.43%
16,COc1ccc(CCN(C)c2ccc(C(N)=O)cc2[N+](=O)[O-])cc1OC,-9.16%
17,CCC(Sc1nc2ccsc2c(=O)n1Cc1ccc(C(=O)O)cc1)C(=O)Nc1cccc(OC)c1 (centres undefined),-1.02%

row,Compound,activity
1,CCN(CC)S(=O)(=O)c1ccc(NC(=O)c2ccc(Cl)nc2)cc1,-9.18%
2,C/C=C(/C)C(=O)OC(C)(C)[C@@H]1Cc2c(ccc3ccc(=O)oc23)O1,2.9%
3,COc1cccc(CNC(=O)c2ccc(NC(=O)C3=CSCCO3)cc2)c1,2.21%
4,CCc1c(C)nc2ncnn2c1Nc1ccc(C#N)c(Cl)c1,-6.62%
5,C=CCn1c(COc2ccccc2F)nnc1SCCN1C(=O)c2ccccc2C1=O,0.412%
6,COc1cc(-c2n[nH]c(=S)n2-c2cccc(C(F)(F)F)c2)cc(OC)c1OC,-6.09%
7,COc1ccc(C(=O)C2CCCN(C(=O)c3ccc(C(C)=O)s3)C2)c(C)c1 (centres undefined),-7.65%
8,CC(=O)c1c(C)[nH]c(C(=O)Nc2cccnc2)c1C,2.65%
9,CC(=O)c1ccc(N2CCN(C(=O)Cc3ccccc3)CC2)c(F)c1,2.1%
10,COC(=O)C1=C(C)Nc2sc(C(N)=O)c(N)c2C1c1ccncc1 (centres undefined),4.49%
11,CCOc1ccc(CCNC(=O)c2cnc(C)cn2)cc1OCC,5.77%
12,CC(=O)c1ccc(C(=O)NC2CCCN(Cc3ccccc3F)C2)s1 (centres undefined),4.56%
13,CCc1nn(CCCC(=O)N(C)Cc2ccccc2)c(=O)c2cc3occc3n12,-13.4%
14,O=C(Nc1cccnc1)c1ccc(Oc2ccccc2)cc1,5.57%
15,CC1CCCN(c2ccc(C(=O)Nc3cccnc3)cc2[N+](=O)[O-])C1 (centres undefined),-8.58%
16,COc1ccc(Cc2c(-c3ccc(OC)c(OC)c3)nc3ccc(C)cn23)c(C)c1,-1.19%
17,CC(=O)c1ccc(C(=O)N2CCCC(Nc3ccccc3)C2)s1 (centres undefined),-0.636%

# Structures from the list above containing an NH in an aromatic ring:
row,Compound,activity
6,COc1cc(-c2n[nH]c(=S)n2-c2cccc(C(F)(F)F)c2)cc(OC)c1OC,-6.09%
8,CC(=O)c1c(C)[nH]c(C(=O)Nc2cccnc2)c1C,2.65%
